Out of some 400,000 compounds screened, about 13,000 (3.2%) were called active. This list was built around the results that the source calls inconclusive (neither active nor inactive); the mix of calls is not that of the screen. Calls follow the shape of the dose curve; as a rule, active = well fitted cell-killing curve with a large enough effect; inconclusive = small, poorly fitted or top-dose-only effect, or effect the other way; inactive = flat fitted curve, though single readings scatter. A potency beside an inconclusive call is a rough fit, not a confirmed value.
assay: qHTS assay for MDR1-selective chemotherapeutics: Primary screen using the drug-selected MDR subline cells KB-V1; settings: KB-V1 MDR cells viability, CellTiter-Glo, 72 h; activity change, negative = cytotoxicity: at 46.1 µM (top of the series); also: nearly all actives have a fitted effect of over 60% in size
Outline: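 Potencies derive from concentration-effect curves fitted to normalized luminescence (CellTiter-Glo) of KB-V1 cells treated for 72 h at 37 degrees C in phenol-red-free DMEM containing 10% FBS.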
% is scaled to controls: 0 for no effect and ±100 for the full control effect; potency is read from the fitted curve at half-maximal effect.

Compound	Potency	activity change, negative = cytotoxicity
COc1ccccc1OCc1ccc(C(=O)N2CCOCC2)o1	inconclusive: 13 µM [cytotoxic, partial curve, poor fit]	–
CCC(c1nnnn1C(C)(C)C)N1CCN(C/C=C/c2ccccc2)CC1 (stereo unspecified)	–	inactive: 2.11%
N#CNC(=Nc1cccc(F)c1)SCc1ccccc1	inconclusive: 20.6 µM [rising, single point]	–
COc1ccc(N=Nc2ccc(N)nc2N)cc1	inconclusive: 29.1 µM [cytotoxic, single point]	–
c1ccc2sc(NN=C3CCCC3)nc2c1	inconclusive: 29.1 µM [cytotoxic, single point]	–
O=C(c1ccccc1)C1CCN(C(=O)C2CCC(=O)N(Cc3ccccc3F)C2)CC1 (stereo unspecified)	inconclusive: 9.2 µM [cytotoxic, partial curve]	–
O=C(O)c1ccccc1Nc1ccccc1	–	inactive: 0.0503%
COCCCn1c(C(=O)N2CCOCC2)cc2c(=O)n3cccc(C)c3nc21	inconclusive: 7.31 µM [cytotoxic, partial curve, poor fit]	–
O=C(CSc1nnc(CNC(=O)c2ccc(F)cc2)o1)NCC1CCCO1 (stereo unspecified)	inconclusive: 29.1 µM [rising, single point]	–
O=C(Nc1ccc(OCC(F)(F)C(F)F)c(C(F)(F)F)c1)c1ccccc1	inconclusive: 18.4 µM [cytotoxic, single point]	–
COc1cccc(/C=N/NC(=O)CC(=O)NCCc2ccccc2)c1OC	–	inactive: -0.495%
CC(C)(C)C1CCC(OCC(O)CN2CCN(c3ccccn3)CC2)CC1 (stereo unspecified)	active: 16.4 µM	–
CCc1ccc(N(C(=O)c2ccco2)C(C(=O)NC2CCCC2)c2cccnc2)cc1 (stereo unspecified)	inconclusive: 18.4 µM [cytotoxic, partial curve]	–
CC(=O)c1ccc(N2CCN(c3ccccc3O)CC2)c([N+](=O)[O-])c1	inconclusive: 11.6 µM [cytotoxic, partial curve]	–
COc1ccc(NC(=O)c2cccc(NC(=O)c3ccccc3)c2)cc1	–	inactive: -19.6%
O=C(Nc1cccc(Cl)c1)N1CCN2C(=O)c3ccccc3C12c1ccccc1 (stereo unspecified)	–	inactive: 0%
CCOC(=O)Cc1csc(NC(=O)c2ccc(Br)cc2)n1	–	inactive: -2.73%
Cc1ccc(NNC(=O)Nc2ccc(Cl)cc2)nn1	–	inactive: 19.2%
COc1ccccc1NC(=O)C(C)OC(=O)CCNS(=O)(=O)c1ccc(C)c(C)c1 (stereo unspecified)	inconclusive: 9.2 µM [cytotoxic, partial curve]	–
NC(=O)c1c(NC(=O)C2CCCO2)sc2c1CCC2 (stereo unspecified)	–	inactive: 6.05%
CCc1nc(SCC(=O)Nc2ccc(N(CC)CC)cc2)n[nH]1	inconclusive: 13 µM [rising, partial curve, poor fit]	–
CCOc1ccccc1NC(=O)CCSc1nc2n[nH]c(C)c2c(=N)n1-c1ccccc1Cl	inconclusive: 20.6 µM [cytotoxic, partial curve]	–
CCOC(=O)C1(Cc2ccc(OC)cc2)CCN(C(=O)C2=CCCC2)CC1	inconclusive: 23.1 µM [cytotoxic, single point]	–
COc1cccc(CN2CCC2(C)C(=O)Nc2ccc3c(c2)CCN3C(C)=O)c1F (stereo unspecified)	–	inactive: 0.512%
COc1ccc(Cc2noc(=O)[nH]2)cc1	–	inactive: 4.3%
O=C(Nc1ccc(Cl)cc1)c1csc(-c2ccncc2)n1	–	inconclusive: 72.5%

Compound	Potency	activity change, negative = cytotoxicity
Cc1onc(-c2ccccc2Cl)c1C(=O)OCC(=O)Nc1cccc(S(=O)(=O)N2CCOCC2)c1	inconclusive: 8.2 µM [cytotoxic, partial curve]	–
C=CCC[C@H](Cc1ccc(F)cc1)C(=O)OC[C@H](Cc1c[nH]c2ccccc12)NC(=O)[C@H](CC=C)CC(=O)N(CCO)Cc1ccccc1	inconclusive: 29.1 µM [cytotoxic, single point]	–
CCCC(=O)Nc1ccc(C(=O)COC(=O)C2=COCCO2)cc1	inconclusive: 8.2 µM [rising, partial curve, poor fit]	–
Cc1csc(NC(=O)c2ccc(C)c(S(=O)(=O)N3CCCCC3)c2)n1	active: 9.2 µM	–
O=C1CCc2cc(S(=O)(=O)NCc3ccc(Cl)cc3)cc3c2N1CC3	inconclusive: 18.4 µM [cytotoxic, partial curve, poor fit]	–
Nc1nnc(SCC(=O)OCC(=O)c2ccccc2)s1	inconclusive: 29.1 µM [rising, single point]	–
COc1ccccc1NC(=S)N(Cc1cccnc1)Cc1ccco1	inconclusive: 18.4 µM [cytotoxic, partial curve, poor fit]	–
COc1ccc(-c2cc(-c3ccccc3)c(C#N)c(=S)[nH]2)cc1	inconclusive: 5.8 µM [cytotoxic, full curve]	–
Cc1cccnc1NC(=O)CCc1nnc2ccc(N3CCC4(CC3)OCCO4)nn12	–	inactive: 26.7%
Cc1ccccc1CN1N=C(/C=C/c2ccccc2)CCC1=O	inconclusive: 16.4 µM [cytotoxic, single point]	–
O=C(c1ccccc1-c1nc(-c2ccc(F)cc2)no1)N1CCCC1	inconclusive: 9.2 µM [cytotoxic, partial curve]	–
Oc1oc(-c2ccco2)nc1C=Nc1cccc(Cl)c1	–	inactive: 6.38%
COc1ccc(N2CCN(C(=O)c3cccc4nc(C)oc34)CC2)cc1	inconclusive: 23.1 µM [cytotoxic, single point]	–
COCC(C)n1c(SCC(=O)c2cc(C)n(C)c2C)nc2ccccc2c1=O (stereo unspecified)	inconclusive: 8.2 µM [cytotoxic, partial curve]	–
CC(C)(C)c1ccc(CSc2nc3c(c(=O)[nH]2)CCCC3)cc1	–	inactive: -11.8%
O=C(Nc1ccc(Cl)c(C(F)(F)F)c1)C1CCCN(S(=O)(=O)c2cccc3cccnc23)C1 (stereo unspecified)	–	inactive: 2.85%
COc1cccc(-c2cnc3c(NC(C)=O)cc(-c4cc(OC)c(OC)c(OC)c4)cn23)c1	inconclusive: 18.4 µM [cytotoxic, single point]	–
CC(C)CNC(=S)NC1CC2CCCC(C1)N2C1CCCCC1 (stereo unspecified)	–	inactive: 0.951%
CCC1CCC(C(=O)NC(C(=O)NCCN(CC(C)C)CC(C)C)C(C)C)CC1 (stereo unspecified)	–	inactive: 22.2%
Cn1c(=O)c2c(nc(OCc3cccnc3)n2Cc2c(F)cccc2Cl)n(C)c1=O	inconclusive: 29.1 µM [cytotoxic, single point]	–
O=C(CSc1ncnc2c1oc1ccccc12)NCc1ccc(F)cc1	inconclusive: 29.1 µM [cytotoxic, single point]	–
Cc1cc(Br)ccc1NC(=O)CNC(=O)Cc1ccc(S(=O)(=O)N2CCOCC2)s1	inconclusive: 20.6 µM [cytotoxic, partial curve, poor fit]	–
Cc1ccc2nc(NC(=O)CSc3nncc(=O)n3N)sc2c1	–	inactive: -11.2%
CN1CCCN(C(=O)c2cccc(Cl)c2)CC1	–	inactive: -5.86%
O=C(/C=C/c1ccccc1)NC(=S)NNC(=O)Cc1cccs1	inconclusive: 29.1 µM [cytotoxic, single point]	–
COCc1c(C(=O)N2CCN(c3ccccc3C)CC2)oc2ccccc12	active: 20.6 µM	–

Record cards (already shown). Values in the order: Potency	activity change, negative = cytotoxicity
Cc1cccnc1NC(=O)CCc1nnc2ccc(N3CCC4(CC3)OCCO4)nn12 as listed: –	inactive: 26.7%
Cc1onc(-c2ccccc2Cl)c1C(=O)OCC(=O)Nc1cccc(S(=O)(=O)N2CCOCC2)c1 as listed: inconclusive: 8.2 µM [cytotoxic, partial curve]	–
O=C(/C=C/c1ccccc1)NC(=S)NNC(=O)Cc1cccs1 as listed: inconclusive: 29.1 µM [cytotoxic, single point]	–
Oc1oc(-c2ccco2)nc1C=Nc1cccc(Cl)c1 as listed: –	inactive: 6.38%

2 of the compounds above, with bars between the fields.
Compound | Potency | activity change, negative = cytotoxicity
O=C(O)c1ccccc1Nc1ccccc1 | – | inactive: 0.0503%
COCCCn1c(C(=O)N2CCOCC2)cc2c(=O)n3cccc(C)c3nc21 | inconclusive: 7.31 µM [cytotoxic, partial curve, poor fit] | –

Following part.

Compound	Potency	activity change, negative = cytotoxicity
CCSc1ncc(/C=N/Nc2ccc([N+](=O)[O-])cc2)n1C	–	inactive: 15.3%
CCN1CCN(c2csc3ccc(F)cc3c2=O)CC1	inconclusive: 6.51 µM [rising, full curve, poor fit]	–
CC(C)c1ccccc1NC(=S)NC(=O)C1CCCCC1	inconclusive: 29.1 µM [cytotoxic, single point]	–
Cc1ccc(C2CC(c3ccccc3C)n3nc(N)nc3N2)cc1 (stereo unspecified)	inconclusive: 29.1 µM [rising, single point]	–
CC(C)(C)NC(=O)c1nc2nc(-c3ccccc3)cc(C(F)(F)F)n2n1	inconclusive: 0.0065 µM [rising, full curve, poor fit]	–
C/C(=N\NC(=O)C(C)Nc1cccc(Cl)c1)c1ccc([N+](=O)[O-])cc1 (stereo unspecified)	active: 18.4 µM	–
CCCCn1c(=O)cc(C)n(-c2ccccc2)c1=O	–	inactive: 0.366%
O=C(O)c1n[nH]c2c1CCCC2	–	inactive: 9.34%
O=C(c1ccc(NS(=O)(=O)c2cccc3cccnc23)cc1)N1CCCCC1	–	inactive: 15.8%
CN(C)c1ccc(-c2nnc(-c3ccccc3F)o2)cc1	–	inactive: -21.8%
CCOC(=O)c1c(S(=O)(=O)NCC(=O)N2CCN(c3cccc(Cl)c3)CC2)c(C)n(C)c1C	–	inactive: 5.44%
CCOC(=O)N1CCN(S(=O)(=O)c2ccc3c(c2)SC(C)C(=O)N3)CC1 (stereo unspecified)	active: 4.61 µM	–
c1cnc2c(c1)ncc1cscc12	–	inactive: -3.2%
CSc1ncccc1C(=O)OCC(=O)c1cccc(Br)c1	–	inactive: -7.65%
COc1ccc(Br)cc1CN(C)CC(=O)NCCc1ccccc1	inconclusive: 11.6 µM [cytotoxic, partial curve]	–
O=C(NC1CCCCCC1)C1c2ccccc2C(=O)N1Cc1cccnc1 (stereo unspecified)	active: 11.6 µM	–
O=C(NCCc1ccccc1)c1ccc2nccnc2c1	–	inactive: 0%
CC1CCCCC1NC(=O)CSc1nnc(CNC(=O)c2ccccc2)n1C (stereo unspecified)	inconclusive: 4.61 µM [rising, full curve, poor fit]	–
CCn1c(COc2ccccc2C)nnc1SCC(=O)CC(=O)Nc1ccccc1	inconclusive: 14.6 µM [cytotoxic, partial curve, poor fit]	–
Brc1ccc([C@H]2CN3CCSC3=N2)cc1	–	inactive: 7.6%
CCN(CC(=O)NC(C)C)Cc1nc2sc3c(c2c(=O)[nH]1)CCC3	inconclusive: 8.2 µM [cytotoxic, partial curve, poor fit]	–
CC(C)[C@H](NC(=O)c1ccc(C(C)(C)C)cc1)C(=O)N1CCN(Cc2ccc3c(c2)OCO3)CC1	–	inconclusive: -28.2%
COc1cc(C(=S)N2CCCC2)ccc1OCc1ccc(C)cc1	inconclusive: 8.2 µM [cytotoxic, partial curve]	–
O=C(Nc1cc(S(=O)(=O)N2CCCCC2)ccc1O)c1ccccc1NS(=O)(=O)c1ccc(F)c(F)c1	inconclusive: 20.6 µM [cytotoxic, single point]	–
